# Data reported in US20220008547A1, “Carrier Peptide Fragment and use Thereof” (TOAGOSEI CO., LTD, priority 2020, published 2022).
# Some of these results come from one statement about several compounds together.
# Test system: HeLa cells
# Assay: Evaluation of cell-penetrating function by flow cytometry (mean fluorescent intensity)
# Format: cell-based, human
# Conditions: 10 μM, 20-hour incubation
# Protocol: HeLa cells (established cell lines derived from human cervical cancer cells) were used as eukaryotic cells, and cell-penetrating functions of three samples (constructs for introducing a foreign substance) obtained in Example 1 were examined
# In this example, Examples 1 to 3 were set according to the kind of peptide used as shown below. In addition, as Examples 4 and 5, peptide-free groups were set. The following test was performed in a total of 5 categories. Here, the concentration described below was a final concentration during the following 20-hour incubation.
# Here, in all of the examples, the concentration of DMSO was adjusted to 0.5% during the following 20-hour incubation. […]
# Then, the collected cells were analyzed using a flow cytometer. […]
# Using the above flow cytometer, gating was performed based on forward scatter (FSC) and side scatter (SSC), and a gate was set for a measurement target cell population. Then, the fluorescent intensity of the cell population within such a gate was measured. The fluorescent intensity of 10,000 measurement target cells was measured for each measurement sample. […] The measurement results were analyzed using commercially available analysis software “FlowJo (registered trademark)” (commercially available from TreeStar), and a mean fluorescent intensity (MFI) of measurement target cell populations was obtained. […]
row,Substance,introduction of a fluorescent dye (FAM) into cells compared with FAM alone (Example 4)
1,FAM-KKRTLRKNDRKKR-CONH2 (N-terminal FAM; C-terminal amide) [Example 2],improved
2,"RXRRBRRXRYQFLIRXRBRXRB-FAM [Example 3, X aminohexanoic acid, B β-alanine]",improved
